Results published in patent publication US8557958B1, “Compositions and methods for treatment of diabetes” (Tarix Pharmaceuticals Ltd., priority 2012, dated 2013).

Test: Percent change in body weight in STZ induced diabetic mouse model (Example 2)
Assay type: in vivo, mouse (C57Bl/6)
Details: 50 μg/kg body weight SC for twenty eight days; FIG. 5
Protocol: C57Bl/6 female mice, 6-7 weeks old were used for the study and conditions were the same as for Example 1 above unless otherwise specified. Following acclimatization, mice were dosed intraperitoneally (IP) with 50 mg/kg STZ solubilized in 0.05 M sodium citrate buffer at a volume of 100 μl per mouse for five consecutive days. Blood Glucose levels were monitored on day 6 post STZ using Accu check glucose meter. Mice were grouped having average blood glucose levels of 200 mg/dL. There were three groups of ten mice each. Mice were dosed subcutaneously with Linear PanCyte (SEQ ID NO:6), PanCyte or vehicle for twenty-eight days.
Linear PanCyte and PanCyte were prepared in saline and administrated subcutaneously at a dose volume of 100 μl/mouse daily for twenty-eight days. Dosing solutions were prepared fresh every three days.

Substance | Percent body weight change as compared to vehicle
Asp^1-Arg^2-Val^3-Ser^4-Ile^5-His^6-Cys^7 [Linear-PanCyte] (DRVSIHC; linear) | No significant differences
Asp^1-Arg^2-Val^3-Ser^4-Ile^5-His^6-Cys^7 [PanCyte] (DRVSIHC; cyclised Ser4-Cys7 linkage) | No significant differences
